The text below walks through data of article PMC3227642.

This assay concerns the target T1, GST-Bms1p (yeast) (UniProt Q08965).
T1 sequence: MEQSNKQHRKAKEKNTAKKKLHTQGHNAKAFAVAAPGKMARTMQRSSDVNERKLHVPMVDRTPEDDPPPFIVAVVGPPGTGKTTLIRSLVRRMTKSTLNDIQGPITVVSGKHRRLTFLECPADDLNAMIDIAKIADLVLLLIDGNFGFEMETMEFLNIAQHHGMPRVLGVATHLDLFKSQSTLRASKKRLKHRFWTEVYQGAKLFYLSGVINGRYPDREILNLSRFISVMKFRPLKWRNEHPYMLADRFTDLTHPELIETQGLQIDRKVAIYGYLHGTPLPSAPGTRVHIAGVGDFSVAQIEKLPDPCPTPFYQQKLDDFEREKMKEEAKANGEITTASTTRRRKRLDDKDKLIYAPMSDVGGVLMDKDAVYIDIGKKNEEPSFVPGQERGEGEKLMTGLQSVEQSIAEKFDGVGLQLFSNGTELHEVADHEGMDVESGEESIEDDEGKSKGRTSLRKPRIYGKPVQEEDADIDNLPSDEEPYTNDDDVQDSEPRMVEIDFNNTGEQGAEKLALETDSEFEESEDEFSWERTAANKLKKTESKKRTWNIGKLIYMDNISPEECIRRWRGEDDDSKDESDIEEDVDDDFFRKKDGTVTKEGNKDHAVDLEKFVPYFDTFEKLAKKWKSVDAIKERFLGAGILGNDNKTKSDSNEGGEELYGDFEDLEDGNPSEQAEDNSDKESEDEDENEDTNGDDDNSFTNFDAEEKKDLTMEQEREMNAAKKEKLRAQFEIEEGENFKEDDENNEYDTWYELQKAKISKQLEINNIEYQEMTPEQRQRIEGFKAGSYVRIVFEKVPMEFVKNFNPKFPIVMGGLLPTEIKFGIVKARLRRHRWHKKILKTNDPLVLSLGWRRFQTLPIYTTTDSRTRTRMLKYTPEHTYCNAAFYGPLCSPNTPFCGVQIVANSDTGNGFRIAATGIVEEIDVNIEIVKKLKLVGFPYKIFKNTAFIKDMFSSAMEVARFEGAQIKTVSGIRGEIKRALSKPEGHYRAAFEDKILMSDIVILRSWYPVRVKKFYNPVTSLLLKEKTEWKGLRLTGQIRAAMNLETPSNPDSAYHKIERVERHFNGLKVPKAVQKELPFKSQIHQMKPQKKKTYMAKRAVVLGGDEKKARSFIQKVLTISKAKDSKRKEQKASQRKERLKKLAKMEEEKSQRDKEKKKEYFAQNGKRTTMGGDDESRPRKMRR
Put plainly: pull-down; glutathione-agarose pulldown from clarified extracts (4 mg protein) of yeast grown in galactose (GST-BMS1 expressed) or glucose (not expressed); 4°C; GST Buffer (25 mM Tris pH 8.0, 150 mM NaCl, 5 mM MgCl2, 1 mM EDTA, 2.5% glycerol); washes with 0.05% or 0.5% Triton X-100; immunoblot with anti-Hsp90 antisera. For orientation: A western blot detects proteins with antibodies after separation by electrophoresis.

These are yes or no findings as the source states them, for the method shown. Binding seen in cells or lysates may run through a third protein. A result given as binding can be weak or reduced; the word gives no strength. Where a sequence is shown, tags or fusion partners need not be part of it.

In the case of Hsp90 (yeast (endogenous in BY4741)), the binding result was “binds”.
